Experiment [1] addresses FLAG-ACAP4 (HEK293T) (UniProt Q8TDY4). Nature of the experiment: co-IP; HEK293T co-transfected with HA-ARF6 and FLAG-ACAP4 and increasing amounts of HA-Acapin; lysed in IP buffer containing 100 uM GTPgammaS; FLAG IP and IB.
Experiment [2] has the same target. Nature of the experiment: co-IP; HEK293T transfected with constitutively active ARF6 Q67L, HA-Acapin and FLAG-ACAP4; with overexpression of HA-Acapin (Supplementary Figure S2A).

Sequences of proteins named here, by UniProt entry; tags and fusion partners are left off. A change or cut given only in a name is not applied to a line headed by its entry.
UniProt Q8TDY4: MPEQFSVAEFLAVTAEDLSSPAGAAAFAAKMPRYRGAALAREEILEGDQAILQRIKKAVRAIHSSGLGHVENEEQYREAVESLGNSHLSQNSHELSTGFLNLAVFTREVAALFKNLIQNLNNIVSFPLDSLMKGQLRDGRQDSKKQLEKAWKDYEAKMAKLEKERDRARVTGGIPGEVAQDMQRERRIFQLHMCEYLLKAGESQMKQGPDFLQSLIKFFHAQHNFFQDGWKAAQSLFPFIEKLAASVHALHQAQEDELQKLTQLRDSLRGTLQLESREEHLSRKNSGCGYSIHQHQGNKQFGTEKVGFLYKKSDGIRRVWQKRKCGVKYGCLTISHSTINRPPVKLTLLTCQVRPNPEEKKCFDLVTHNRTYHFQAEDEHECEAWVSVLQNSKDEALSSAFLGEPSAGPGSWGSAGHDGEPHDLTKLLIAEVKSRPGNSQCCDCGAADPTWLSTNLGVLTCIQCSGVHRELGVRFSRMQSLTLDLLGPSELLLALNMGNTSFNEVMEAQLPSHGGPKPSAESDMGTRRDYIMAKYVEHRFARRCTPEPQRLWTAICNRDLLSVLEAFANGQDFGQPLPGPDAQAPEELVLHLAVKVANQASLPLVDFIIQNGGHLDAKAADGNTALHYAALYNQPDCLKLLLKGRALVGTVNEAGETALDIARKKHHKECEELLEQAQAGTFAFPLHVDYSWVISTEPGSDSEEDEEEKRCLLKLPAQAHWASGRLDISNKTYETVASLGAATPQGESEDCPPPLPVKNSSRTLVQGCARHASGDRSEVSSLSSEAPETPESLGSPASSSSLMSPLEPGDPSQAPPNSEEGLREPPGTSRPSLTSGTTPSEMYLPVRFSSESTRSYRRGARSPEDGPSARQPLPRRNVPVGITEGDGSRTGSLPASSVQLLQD
UniProt P62330: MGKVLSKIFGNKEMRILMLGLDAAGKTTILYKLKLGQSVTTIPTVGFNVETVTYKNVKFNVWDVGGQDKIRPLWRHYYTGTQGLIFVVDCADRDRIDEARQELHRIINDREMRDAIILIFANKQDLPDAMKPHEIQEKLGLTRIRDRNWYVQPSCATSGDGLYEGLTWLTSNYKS

Results are given in words; binding and its absence hold for the method and conditions named. Binding seen in cells or lysates may run through a third protein. Some entries that bind do so weakly or less than the wild type.

Regarding “HA-ARF6 (wild type) (from UniProt P62330 1-175)”, in the experiment with FLAG-ACAP4 (HEK293T) [1], the binding result was “binds”.

“HA-ARF6^Q67L (constitutively active) (from UniProt P62330 1-175)”: the binding result with FLAG-ACAP4 (HEK293T) [2] was “binds”.

Source of the values: article PMC12570880.
